These are yes or no findings as the source states them, for the method shown. Binding seen in cells or lysates may run through a third protein. Here binding means that the protein was enriched with, or labelled near, the bait; the list need not be complete.
Molecular target: PFKFB3 of the immunoprecipitate analysed by mass spectrometry (UniProt Q16875)
Experiment: affinity purification with mass spectrometry; protein samples from IP separated by SDS-PAGE, LC-ESIMS/MS on Q Exactive HF; cells and IP antibody not stated

The chains behind the UniProt entries cited, without tags or fusion partners.
UniProt Q16875: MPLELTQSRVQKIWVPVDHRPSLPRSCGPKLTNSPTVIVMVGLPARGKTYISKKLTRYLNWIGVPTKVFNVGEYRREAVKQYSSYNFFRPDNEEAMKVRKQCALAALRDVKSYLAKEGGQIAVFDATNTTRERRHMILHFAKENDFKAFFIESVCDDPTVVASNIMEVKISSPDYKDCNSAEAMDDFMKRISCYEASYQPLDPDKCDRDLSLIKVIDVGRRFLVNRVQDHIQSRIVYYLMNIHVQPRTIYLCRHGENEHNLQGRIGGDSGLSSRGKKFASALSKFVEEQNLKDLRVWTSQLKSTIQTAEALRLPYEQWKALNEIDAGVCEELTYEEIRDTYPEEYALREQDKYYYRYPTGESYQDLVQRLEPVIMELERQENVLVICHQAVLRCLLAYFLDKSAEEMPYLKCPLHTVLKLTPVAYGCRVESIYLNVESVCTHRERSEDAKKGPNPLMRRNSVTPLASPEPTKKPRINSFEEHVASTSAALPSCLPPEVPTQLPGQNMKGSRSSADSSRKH

- binding: binds
B1: KDM2A found by mass spectrometry of the immunoprecipitate (protein, UniProt Q9Y2K7 1-1162)
chain: MEPEEERIRYSQRLRGTMRRRYEDDGISDDEIEGKRTFDLEEKLHTNKYNANFVTFMEGKDFNVEYIQRGGLRDPLIFKNSDGLGIKMPDPDFTVNDVKMCVGSRRMVDVMDVNTQKGIEMTMAQWTRYYETPEEEREKLYNVISLEFSHTRLENMVQRPSTVDFIDWVDNMWPRHLKESQTESTNAILEMQYPKVQKYCLMSVRGCYTDFHVDFGGTSVWYHIHQGGKVFWLIPPTAHNLELYENWLLSGKQGDIFLGDRVSDCQRIELKQGYTFVIPSGWIHAVYTPTDTLVFGGNFLHSFNIPMQLKIYNIEDRTRVPNKFRYPFYYEMCWYVLERYVYCITNRSHLTKEFQKESLSMDLELNGLESGNGDEEAVDREPRRLSSRRSVLTSPVANGVNLDYDGLGKTCRSLPSLKKTLAGDSSSDCSRGSHNGQVWDPQCAPRKDRQVHLTHFELEGLRCLVDKLESLPLHKKCVPTGIEDEDALIADVKILLEELANSDPKLALTGVPIVQWPKRDKLKFPTRPKVRVPTIPITKPHTMKPAPRLTPVRPAAASPIVSGARRRRVRCRKCKACVQGECGVCHYCRDMKKFGGPGRMKQSCVLRQCLAPRLPHSVTCSLCGEVDQNEETQDFEKKLMECCICNEIVHPGCLQMDGEGLLNEELPNCWECPKCYQEDSSEKAQKRKMEESDEEAVQAKVLRPLRSCDEPLTPPPHSPTSMLQLIHDPVSPRGMVTRSSPGAGPSDHHSASRDERFKRRQLLRLQATERTMVREKENNPSGKKELSEVEKAKIRGSYLTVTLQRPTKELHGTSIVPKLQAITASSANLRHSPRVLVQHCPARTPQRGDEEGLGGEEEEEEEEEEEDDSAEEGGAARLNGRGSWAQDGDESWMQREVWMSVFRYLSRRELCECMRVCKTWYKWCCDKRLWTKIDLSRCKAIVPQALSGIIKRQPVSLDLSWTNISKKQLTWLVNRLPGLKDLLLAGCSWSAVSALSTSSCPLLRTLDLRWAVGIKDPQIRDLLTPPADKPGQDNRSKLRNMTDFRLAGLDITDATLRLIIRHMPLLSRLDLSHCSHLTDQSSNLLTAVGSSTRYSLTELNMAGCNKLTDQTLIYLRRIANVTLIDLRGCKQITRKACEHFISDLSINSLYCLSDEKLIQKIS
